Biological target: Mitogen-activated protein kinase kinase kinase 2 (Homo sapiens) + Dual specificity mitogen-activated protein kinase kinase 5 (Homo sapiens) (UniProt Q9Y2U5+Q13163)
Assay: MEKK2 PB1-MEK5 interaction blockers – biochemical, bead multiplex flow cytometry, wildtype, dose response (AID 1897)
Settings: MEK5-MEKK2 PB1 binding

Amino acid sequences for entries named in this document (tags omitted). A change or cut given only in a name is not applied to a line headed by its entry.
UniProt Q9Y2U5: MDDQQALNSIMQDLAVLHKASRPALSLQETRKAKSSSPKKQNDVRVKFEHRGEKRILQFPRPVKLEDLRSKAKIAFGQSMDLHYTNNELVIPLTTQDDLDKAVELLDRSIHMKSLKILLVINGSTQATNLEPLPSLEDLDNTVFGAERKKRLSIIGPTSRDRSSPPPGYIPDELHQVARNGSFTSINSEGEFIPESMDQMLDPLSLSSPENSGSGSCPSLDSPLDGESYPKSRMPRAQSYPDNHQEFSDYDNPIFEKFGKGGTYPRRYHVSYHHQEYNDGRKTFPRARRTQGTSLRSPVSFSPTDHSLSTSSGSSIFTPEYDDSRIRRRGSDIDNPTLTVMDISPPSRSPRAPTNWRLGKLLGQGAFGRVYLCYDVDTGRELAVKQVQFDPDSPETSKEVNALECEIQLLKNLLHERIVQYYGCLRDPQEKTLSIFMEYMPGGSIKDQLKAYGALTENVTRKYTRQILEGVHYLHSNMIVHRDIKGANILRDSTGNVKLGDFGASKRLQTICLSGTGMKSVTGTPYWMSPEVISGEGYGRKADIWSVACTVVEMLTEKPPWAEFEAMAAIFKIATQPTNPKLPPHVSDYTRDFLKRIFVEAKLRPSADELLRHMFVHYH
UniProt Q13163: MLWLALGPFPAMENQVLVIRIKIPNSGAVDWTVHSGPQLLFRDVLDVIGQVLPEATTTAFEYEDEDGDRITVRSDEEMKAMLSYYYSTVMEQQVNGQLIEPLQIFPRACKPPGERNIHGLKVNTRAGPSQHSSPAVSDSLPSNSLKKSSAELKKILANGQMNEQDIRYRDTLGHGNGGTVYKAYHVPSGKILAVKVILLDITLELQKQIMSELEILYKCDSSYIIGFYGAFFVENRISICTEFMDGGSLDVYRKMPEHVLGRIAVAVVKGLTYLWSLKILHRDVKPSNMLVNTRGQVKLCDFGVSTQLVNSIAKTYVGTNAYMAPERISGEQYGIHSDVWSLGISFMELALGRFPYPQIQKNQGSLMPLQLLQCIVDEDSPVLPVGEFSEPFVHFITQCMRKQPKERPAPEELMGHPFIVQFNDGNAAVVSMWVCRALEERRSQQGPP

- EC50: 4.02 µM
Compound: Cc1c2cc(O)c(=O)cc-2oc2cc(O)c(O)cc12
